Reference: PubChem BioAssay AID1259254 (NCATS, 2017)
Purpose: 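Genome-wide screen for genes that prevent DNA re-replication in cancer cells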 (primary screen). Cell system: human HCT116 colorectal cancer cells. Reagent: single siRNA against human genes. Time to read-out: 3 days. Detection: 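Imaged Hoechst DNA stain sorts each cell into a cycle phase by DNA amount; per plate, G2 fraction set to 0% for non-targeting and 100% for GMNN siRNA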. Scale: G2 robust z-score: higher = more G2 cells, more excess DNA replication. Rule for the call: 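Active siRNAs have a G2 robust z of 5 or more median absolute deviations over the median, which in these data means about 38% or higher of GMNN control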.
Here is one part, drawn at random, of about 59,000 reagents tested. About 1,550 of all reagents (2.6%) were called active. 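G2 share is only a proxy for re-replication; each gene was hit by three separate siRNAs, and active genes were retested.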 Entries without a mark were called inactive. The numbers tell different reagents against one gene apart. Further read-outs or replicates are left out here. Not stated in the record: the amount of reagent.

{"target gene":"COPS7A (COP9 signalosome subunit 7A)","siRNA no.":1,"G2 robust z-score":-0.0545}
{"target gene":"COPS7A (COP9 signalosome subunit 7A)","siRNA no.":2,"G2 robust z-score":"7.14 (active)"}
{"target gene":"COPS7A (COP9 signalosome subunit 7A)","siRNA no.":3,"G2 robust z-score":-0.717}
{"target gene":"BTF3L4 (basic transcription factor 3 like 4)","siRNA no.":1,"G2 robust z-score":-0.941}
{"target gene":"BTF3L4 (basic transcription factor 3 like 4)","siRNA no.":2,"G2 robust z-score":0.637}
{"target gene":"BTF3L4 (basic transcription factor 3 like 4)","siRNA no.":3,"G2 robust z-score":-1.09}
{"target gene":"DHRSX (dehydrogenase/reductase X-linked)","siRNA no.":1,"G2 robust z-score":0.0989}
{"target gene":"DHRSX (dehydrogenase/reductase X-linked)","siRNA no.":2,"G2 robust z-score":1.23}
{"target gene":"DHRSX (dehydrogenase/reductase X-linked)","siRNA no.":3,"G2 robust z-score":0.994}
{"target gene":"HNRNPK (heterogeneous nuclear ribonucleoprotein K)","siRNA no.":1,"G2 robust z-score":4.33}
{"target gene":"HNRNPK (heterogeneous nuclear ribonucleoprotein K)","siRNA no.":2,"G2 robust z-score":2.38}
{"target gene":"HNRNPK (heterogeneous nuclear ribonucleoprotein K)","siRNA no.":3,"G2 robust z-score":2.08}
{"target gene":"KANSL3 (KAT8 regulatory NSL complex subunit 3)","siRNA no.":1,"G2 robust z-score":-0.591}
{"target gene":"KANSL3 (KAT8 regulatory NSL complex subunit 3)","siRNA no.":2,"G2 robust z-score":1.58}
{"target gene":"KANSL3 (KAT8 regulatory NSL complex subunit 3)","siRNA no.":3,"G2 robust z-score":-0.3}
{"target gene":"IGSF10 (immunoglobulin superfamily member 10)","siRNA no.":1,"G2 robust z-score":4.81}
{"target gene":"IGSF10 (immunoglobulin superfamily member 10)","siRNA no.":2,"G2 robust z-score":-0.629}
{"target gene":"IGSF10 (immunoglobulin superfamily member 10)","siRNA no.":3,"G2 robust z-score":-0.712}
{"target gene":"SACK1A (scaffolding CK1 anchoring protein A)","siRNA no.":1,"G2 robust z-score":-1.09}
{"target gene":"SACK1A (scaffolding CK1 anchoring protein A)","siRNA no.":2,"G2 robust z-score":-0.0225}
{"target gene":"SACK1A (scaffolding CK1 anchoring protein A)","siRNA no.":3,"G2 robust z-score":-0.858}
{"target gene":"MC1R (melanocortin 1 receptor)","siRNA no.":1,"G2 robust z-score":2.32}
{"target gene":"MC1R (melanocortin 1 receptor)","siRNA no.":2,"G2 robust z-score":-0.616}
{"target gene":"MC1R (melanocortin 1 receptor)","siRNA no.":3,"G2 robust z-score":1.79}

In a second layout: results already given
target gene	siRNA no.	G2 robust z-score
SACK1A (scaffolding CK1 anchoring protein A)	2	-0.0225
SACK1A (scaffolding CK1 anchoring protein A)	3	-0.858
MC1R (melanocortin 1 receptor)	1	2.32
MC1R (melanocortin 1 receptor)	2	-0.616
